At least one peptide structure holds a part that was inferred or is arguable (an end, a ring closure or a residue). At least one compound was matched to its structure with a doubt left. Where a SMILES comes first, the peptide text is derived from it. Bridges are numbered along the chain shown (N, C = ends). [ ]: non-standard residue; d: D form. 2Nal = N[C@@H](Cc1ccc2ccccc2c1)C(=O)O; Cit = NC(=O)NCCC[C@H](N)C(=O)O
The molecules below were run against T1, CXCR4 (Homo sapiens, UniProt P61073) (assay: Ca2+ assay: CXCR4 antagonizing activity of the peptides). Conditions: CXCR4 transfected pre-B cells, Fura-2 fluorescence, 37° C.
T1 construct: expressed in transfected cells
Format: cell-based
Method: 2.2. Ca^2+− assay: CXCR4Antagonizing Activity of the Peptides
3-4 Mio CXCR4 transfected pre-B cells [see references 1, 2 and 3, below] per measurement were resuspended in 200 μl MSB (20 mM 4-(2-Hyddroxyethyl)-piperazin-1-ethansulfonic acid (HEPES), 136 mM NaCl, 4.8 mM KCl and 1 mM CaCl2) containing 5 mM D-Glucose and were loaded with 0.75 μl of 1 mM Fura-2-acetoxymethylester for 17 minutes at 37° C. The cells were washed free from Fura-2-AM with a platelet centrifuge and resuspended in 800 R1 MSB containing 5 mM D-Glucose. The peptides to be administered were diluted to a 100 fold end concentration in MSB/0.2% PPL, and 8 pl were injected. [Ca^2+ ]i-dependent fluorescence change in response to single or sequential stimulation with the peptide was recorded with a fluorimeter at an excitation wavelength of 340 nm and an end emission wavelength of 510 nm [see ref. 4, below]. Measurements were done under continuous stirring at 37° C. The signal intension was calibrated with 3 mM4 CaCl2/1 nM lonomycin (maximal fura-2-acetoxymethylester saturation) and […] MnCl2 (minimal Fura-2-acetoxymethylester saturation) and [Ca^2+]i-changes are presented in % fura-2-acetoxymethylester saturation.
MSB: 20 nmM HEPES, 136 mM NaCl, 4.8 mM KCl, 1 mM CaCl2.2H2O, pH 7.4; Osmolarity: 310 mOsm adjusted with NaOH or HCl, adjusted with dH2O or PBS.
MSB plus: 5 mM D-glucose in MSB (50 mg/50 mL).
Fura 2-acetoxymethylester: 1 mM stock solution in dimethylsulfoxide.

Chains of the proteins cited; added tags and fusions are not shown.
UniProt P61073, whole entry: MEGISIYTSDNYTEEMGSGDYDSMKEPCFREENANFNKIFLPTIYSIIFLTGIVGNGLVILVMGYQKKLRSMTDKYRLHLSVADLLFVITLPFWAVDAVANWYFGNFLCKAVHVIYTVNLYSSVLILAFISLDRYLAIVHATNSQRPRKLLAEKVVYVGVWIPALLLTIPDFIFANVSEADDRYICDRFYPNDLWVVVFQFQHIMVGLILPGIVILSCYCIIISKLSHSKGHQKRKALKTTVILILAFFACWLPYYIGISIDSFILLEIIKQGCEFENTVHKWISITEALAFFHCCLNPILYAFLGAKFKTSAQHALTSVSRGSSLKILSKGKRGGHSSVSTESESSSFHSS

SMILES	IC50 [nM]
N=C(N)NCCC[C@H](NC(=O)[C@@H]1CSSC[C@H](NC(=O)[C@H](Cc2ccc3ccccc3c2)NC(=O)[C@H](CCCNC(=N)N)NC(=O)[C@@H](N)CCCNC(=N)N)C(=O)N[C@@H](Cc2ccc(O)cc2)C(=O)N[C@@H](CCCCN)C(=O)N[C@H](CCCCN)C(=O)N2CCC[C@H]2C(=O)N[C@@H](Cc2ccc(O)cc2)C(=O)N[C@@H](CCCNC(N)=O)C(=O)N1)C(N)=O [Example 1] (H-RR[2Nal]CYK[dK]PY[Cit]CR-NH2; disulfide 4-11; N-terminus assumed)	2400
N=C(N)NCCC[C@H](NC(=O)[C@@H]1CSSC[C@H](NC(=O)[C@H](Cc2ccc3ccccc3c2)NC(=O)[C@H](CCCNC(=N)N)NC(=O)[C@@H](N)CCCNC(=N)N)C(=O)N[C@@H](Cc2ccc(O)cc2)C(=O)N[C@@H](CCCNC(=N)N)C(=O)N[C@H](CCCCN)C(=O)N2CCC[C@H]2C(=O)N[C@@H](Cc2ccc(O)cc2)C(=O)N[C@@H](CCCNC(N)=O)C(=O)N1)C(N)=O [Example 2] (H-RR[2Nal]CYR[dK]PY[Cit]CR-NH2; disulfide 4-11)	1000
N=C(N)NCCC[C@H](NC(=O)[C@@H]1CSSC[C@H](NC(=O)[C@H](Cc2ccc3ccccc3c2)NC(=O)[C@H](CCCNC(=N)N)NC(=O)[C@@H](N)CCCNC(=N)N)C(=O)N[C@@H](Cc2ccc(O)cc2)C(=O)N[C@@H](CCCNC(N)=O)C(=O)N[C@@H](CCCCN)C(=O)N[C@H]2C[C@H]3C(=O)N[C@@H](CC(=O)N[C@@H](Cc4ccc(O)cc4)C(=O)N[C@@H](CCCNC(=N)N)C(=O)N[C@@H](CCCNC(N)=O)C(=O)N1)C(=O)N3C2)C(N)=O [Example 21]	316

— US7838496B2, “Template-fixed peptidomimetics as medicaments against HIV and cancer” (Polyphor AG/Ltd., priority 2003, dated 2010)
